# The supplement of paper PMC3334620
# In all, about 33,000 sequences were measured (“E-score (-0.5 to 0.5)”: median about -8e-05, highest 2% from about 0.23 on). Some of the results follow.
# Target: T1, Nrg2 (UniProt P38082)
# T1 sequence: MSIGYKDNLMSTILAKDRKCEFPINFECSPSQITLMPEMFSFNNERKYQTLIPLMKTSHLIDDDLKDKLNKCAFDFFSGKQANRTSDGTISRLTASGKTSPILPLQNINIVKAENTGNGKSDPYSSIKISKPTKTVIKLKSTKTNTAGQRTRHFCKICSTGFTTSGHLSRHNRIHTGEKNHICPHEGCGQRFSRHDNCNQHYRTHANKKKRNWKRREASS
# Test: PBM E-score (8-mer binding enrichment) (E-score (-0.5 to 0.5)); higher = stronger / more preferred TF binding
# Settings: protein concentration: 100 nM; construct: GST-full length
# Description: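 Universal 'all 10-mer' protein binding microarrays (Agilent AMADID 015681) probed with GST-tagged S. cerevisiae TFs (full-length or DBD) made by in vitro transcription/translation (PURExpress), about 100-200 nM. Bound TF was detected with fluorescent anti-GST. Each ungapped 8-mer (which stands for itself and its reverse complement) is scored by the PBM enrichment score (E-score), a modified Wilcoxon-Mann-Whitney statistic from -0.5 to +0.5, computed with the Universal PBM Analysis Suite. Scale: above 0.35 generally sequence-specific binding.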
row,Sequence,PBM E-score
1,AAGCGTCC,-0.0875
2,AGATATGC,0.0775
3,CGCTAAAG,-0.00095
4,AAAAGTCA,-0.127
5,AAGGTACA,-0.0356
6,CAAAGAGA,-0.0733
7,ACTTGTGC,-0.0536
8,TCGTTGAA,-0.0977
9,ATAACTCC,-0.0547
10,AAATCCTC,-0.00147
11,CATATACA,0.159
12,ACCGAGCT,-0.00413
13,GGATGCCC,-0.255
14,CTAGGTAC,-0.187
15,CATCCCAG,-0.0703
16,CGCAGACA,0.185
17,CATAGTGA,-0.108
18,ATGGTCAA,0.0461
19,ATATTCCA,0.205
20,CTGCACCC,0.00564
21,CTATTTTC,0.0804
22,CGAGGAAA,0.0442
23,ATGACGGC,-0.06
24,GCGCTGAC,0.00013
25,AACACTTC,0.22

row,Sequence,PBM E-score
1,CTATGGGC,0.0903
2,ATCGGCAC,0.0929
3,ACCACCCT,-0.0901
4,GCCCGGGA,-0.125
5,CCCCGCGC,-0.1
6,CGGAATCA,0.179
7,CACGTATG,-0.169
8,AAATGGAG,0.0118
9,GGCCTTCA,-0.0206
10,AACCGACA,0.0543
11,CAATTTGG,0.00493
12,ACACGGGA,0.0947
13,CGTACCGC,0.00147
14,CTCCCACA,-0.0449
15,GCTTGTCA,0.118
16,AGCCTACC,-0.246
17,AATATACG,0.0258
18,GCAATAAA,0.269
19,CGTGTCGA,0.0013
20,CATAACTC,-0.0265
21,CAGGCAAC,-0.0806
22,CCGCACTC,0.15
23,AAGTCTAC,0.0468
24,AACAAGGT,0.0681
25,ATAAATTC,0.0818

row,Sequence,PBM E-score
1,TACTCCCA,0.0705
2,CCACACCC,0.00707
3,CATGATCG,-0.00025
4,GCCCCAGA,-0.0796
5,CGCATATC,0.293
6,CAGGCTAC,-0.0943
7,CTGGTCAC,-0.0986
8,ACGTGGAC,0.079
9,AGGAGTTG,-0.017
10,CAAAGCCC,-0.148
11,CGGCTAGA,-0.2
12,ACCGGACA,-0.157
13,AACCTTCA,-0.0432
14,AAGCATAT,-0.0895
15,AATGTGGC,0.181
16,AAGATACT,0.14
17,GCGAGCGA,0.157
18,ACCCTCAG,0.0566
19,ATCGCATG,0.188
20,ATAATGTG,0.0555
21,ATCTGACG,-0.0799
22,CGTATAAG,-0.0314
23,CGATTAAG,0.0277
24,CACCCTAG,0.113
25,AATAGATT,0.0195

row,Sequence,PBM E-score
1,ACGACAGC,0.0488
2,AGAGGTGA,0.0253
3,CTTAGTAC,0.0352
4,GCACCAAA,0.106
5,ATCCAGAC,0.0244
6,GAAAACAC,0.0782
7,ATGGAACG,0.0154
8,AGTCAACG,-0.0331
9,AGTTAATC,0.0905
10,AGTTGCGG,0.228
11,ACAGTTAA,0.0947
12,AGCCGTGA,0.00802
13,ACGCCCTA,-0.161
14,GTTAATCA,0.164
15,ACGGGAGG,-0.198
16,CAACGAAA,0.0979
17,TCTTACAA,-0.194
18,ATTAGGAC,-0.0887
19,GTAAACTA,0.0694
20,GCCGCTCA,-0.0694
21,GCACCAGC,-0.0819
22,CGGCCCTA,0.127
23,CCAAGTTC,-0.0364
24,GTGTTCCA,-0.116
25,ATTTCTTG,0.159

row,Sequence,PBM E-score
1,AAGTCCAT,-0.0391
2,GACGCAAC,-0.00802
3,ATCCATCC,0.124
4,ACAAGGTC,-0.0117
5,AAGCGGAA,-0.0181
6,CATCATGC,0.0406
7,GTAAGCCA,-0.113
8,GCACTTCA,0.0324
9,CGGATCTC,0.00911
10,CATCACCG,-0.133
11,GAGCCACC,-0.345
12,ATGCAAAA,0.164
13,TCTGAAAA,-0.101
14,CATATAAA,0.00613
15,CTCTCGGA,0.073
16,CCTCGAAC,-0.0033
17,AGTGAAAC,0.0762
18,CCCATATA,0.177
19,GGGACACA,0.145
20,CATTATGC,0.0739
21,CCCATCCG,-0.215
22,ATATTCTC,0.212
23,CATATGAC,0.0581
24,GAGTTACA,0.112
25,CCTGGCGC,0.123

row,Sequence,PBM E-score
1,AGTTCACG,-0.16
2,CCGAGAAG,-0.0215
3,CCGACAAA,0.123
4,AAGTTCAC,-0.0392
5,CGCTTCGC,-0.162
6,CAACTCCC,0.185
7,CGGTGAGC,-0.158
8,ATAGTGTC,0.0487
9,CCGCTCGA,0.0954
10,AACCGAAC,-0.107
11,CGCAAGTA,0.0376
12,CCTGTCTA,0.177
13,AATGGACA,0.086
14,GCGGAGAA,0.132
15,TGTTATAA,0.163
16,CCTCGTGA,-0.115
17,AGCTAGTG,0.00386
18,GTTAAGAA,-0.0145
19,ATTCACGG,0.0165
20,CCCTGTAC,0.208
21,CAACCCAC,0.0583
22,AACCCAAT,-0.0486
23,GTAAAAGA,0.0953
24,ACCAAAGT,0.014
25,ACAGCTGG,-0.0493

# 6 records drawn at random from those above:
row,Sequence,PBM E-score
7,CGGTGAGC,-0.158
10,AACCGAAC,-0.107
2,CCGAGAAG,-0.0215
20,CCCTGTAC,0.208
3,CCGACAAA,0.123
23,GTAAAAGA,0.0953

# Next part.

row,Sequence,PBM E-score
1,TTCCTCAA,-0.0689
2,AACCAGTG,-0.0973
3,CGAAGCAG,-0.0953
4,GAAAGCGC,-0.00013
5,GAACCTTC,0.0279
6,CTAATTTA,0.0763
7,CCTAGACG,-0.09
8,CACTGCAG,0.174
9,ATACCACG,-0.0465
10,AGATTCGC,0.0138
11,ATGGCGTG,0.0903
12,CGTGTACA,0.11
13,CACTTTAA,0.0841
14,ACCTTTTA,-0.23
15,ATCCTTTG,0.0405
16,CCGCCGCG,-0.00074
17,CACTTTTC,0.203
18,GTATGCAC,0.0116
19,GATCGGCC,-0.0571
20,CCTGGATA,-0.0382
21,AAAATCCT,-0.0569
22,ATGCCCGG,-0.0315

# As a short view, some entries already given.
row,Sequence,PBM E-score
13,GGATGCCC,-0.255
14,CTAGGTAC,-0.187
